According to patent US9669014B2, “Small molecule inhibitors of superoxide dismutase expression” (Northwestern University, priority 2014, dated 2017):
For part of these data: For at least one compound, name, drawing or mass did not settle the structure. Some results were stated once for a whole list of compounds, not compound by compound.

Experiments:
SOD1 expression = details: unknown mechanism; cited from earlier work
G93A-SOD1 expression = assay: SOD1 protein expression in cultured fibroblasts from G93A-SOD1 mice (ELISA); type: cell-based, mouse; details: 10 μM

SMILES | Effect on SOD1 expression (reported) (SOD1 expression) | SOD1 expression, % of control (G93A-SOD1 expression)
CCc1nc(N)nc(N)c1-c1ccc(Cl)cc1 [pyrimethamine] | reduce SOD1 expression | 
COc1ccc(CSc2nnc(-c3ccncc3)o2)cc1 [NUCC-434] |  | 47-50 % of control
COc1cccc(CSc2nnc(-c3ccncc3)o2)c1 [NUCC-433] |  | 47-50 % of control
